Results are given in words; binding and its absence hold for the method and conditions named.
Key:
Test in all cases: two-hybrid; yeast strain AH109; AD-FIO1 (pGADT7) with MTA, MTB, HAKAI or FIP37 in pGBKT7
[1] = biological target: T1, MTB (Arabidopsis thaliana) (UniProt Q94AI4)
T1 sequence: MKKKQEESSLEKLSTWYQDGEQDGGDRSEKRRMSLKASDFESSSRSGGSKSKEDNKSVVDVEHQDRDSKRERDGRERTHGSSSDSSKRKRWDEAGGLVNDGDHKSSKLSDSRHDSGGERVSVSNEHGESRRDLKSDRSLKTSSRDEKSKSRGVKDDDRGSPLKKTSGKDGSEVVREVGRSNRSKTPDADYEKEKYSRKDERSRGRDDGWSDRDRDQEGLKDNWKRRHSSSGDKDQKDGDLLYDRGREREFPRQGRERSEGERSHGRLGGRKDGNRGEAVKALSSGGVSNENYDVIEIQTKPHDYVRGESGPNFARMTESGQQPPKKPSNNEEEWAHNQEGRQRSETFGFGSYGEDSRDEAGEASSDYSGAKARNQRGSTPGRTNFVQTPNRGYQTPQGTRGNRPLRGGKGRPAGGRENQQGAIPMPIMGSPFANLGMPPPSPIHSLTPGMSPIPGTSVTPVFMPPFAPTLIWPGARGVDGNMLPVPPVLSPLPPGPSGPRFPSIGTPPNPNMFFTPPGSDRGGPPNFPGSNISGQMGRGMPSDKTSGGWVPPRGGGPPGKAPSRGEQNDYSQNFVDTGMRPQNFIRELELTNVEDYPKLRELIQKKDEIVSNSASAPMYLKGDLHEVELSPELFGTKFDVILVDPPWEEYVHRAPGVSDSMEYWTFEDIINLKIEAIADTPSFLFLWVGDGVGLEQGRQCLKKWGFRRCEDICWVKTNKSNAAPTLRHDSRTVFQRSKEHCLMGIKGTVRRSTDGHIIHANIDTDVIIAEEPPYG

[2] = biological target: T2, FKBP12 … PROTEIN 37KD (FIP37) (Arabidopsis thaliana) (UniProt Q9ZSZ8)
T2 sequence: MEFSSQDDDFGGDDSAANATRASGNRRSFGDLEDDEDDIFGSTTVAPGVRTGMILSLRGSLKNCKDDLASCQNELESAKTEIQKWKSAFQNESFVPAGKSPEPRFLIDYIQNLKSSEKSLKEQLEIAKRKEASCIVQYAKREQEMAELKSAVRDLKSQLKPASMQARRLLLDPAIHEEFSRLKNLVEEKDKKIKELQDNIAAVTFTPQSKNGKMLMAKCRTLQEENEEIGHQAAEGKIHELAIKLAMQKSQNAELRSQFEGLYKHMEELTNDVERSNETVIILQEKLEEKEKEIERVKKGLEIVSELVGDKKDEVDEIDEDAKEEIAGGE

[3] = biological target: T3, HAKAI (Arabidopsis thaliana) (UniProt Q9LFC0)
T3 sequence: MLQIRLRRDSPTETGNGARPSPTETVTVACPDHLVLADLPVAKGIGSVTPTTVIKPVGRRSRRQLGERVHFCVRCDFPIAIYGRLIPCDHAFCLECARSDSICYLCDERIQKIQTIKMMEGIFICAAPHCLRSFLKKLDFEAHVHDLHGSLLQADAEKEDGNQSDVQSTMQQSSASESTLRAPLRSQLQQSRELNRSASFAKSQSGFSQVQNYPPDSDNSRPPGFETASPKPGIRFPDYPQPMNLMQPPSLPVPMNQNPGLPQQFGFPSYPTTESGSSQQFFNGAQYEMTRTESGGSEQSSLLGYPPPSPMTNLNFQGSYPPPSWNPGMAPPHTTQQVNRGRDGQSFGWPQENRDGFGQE

binding [1]: no binding
binding [2]: no binding
binding [3]: no binding
Substance: FIONA1 (FIO1) (Arabidopsis thaliana)

Source: PMC8867147
